Data as given in patent US20170002075A1.
These are yes or no findings as the source states them, for the method shown. Some entries that bind do so weakly or less than the wild type.

Sequences of proteins named here, by UniProt entry; tags and fusion partners are left off. A change or cut given only in a name is not applied to a line headed by its entry. Residues count along the entry.
UniProt Q15109: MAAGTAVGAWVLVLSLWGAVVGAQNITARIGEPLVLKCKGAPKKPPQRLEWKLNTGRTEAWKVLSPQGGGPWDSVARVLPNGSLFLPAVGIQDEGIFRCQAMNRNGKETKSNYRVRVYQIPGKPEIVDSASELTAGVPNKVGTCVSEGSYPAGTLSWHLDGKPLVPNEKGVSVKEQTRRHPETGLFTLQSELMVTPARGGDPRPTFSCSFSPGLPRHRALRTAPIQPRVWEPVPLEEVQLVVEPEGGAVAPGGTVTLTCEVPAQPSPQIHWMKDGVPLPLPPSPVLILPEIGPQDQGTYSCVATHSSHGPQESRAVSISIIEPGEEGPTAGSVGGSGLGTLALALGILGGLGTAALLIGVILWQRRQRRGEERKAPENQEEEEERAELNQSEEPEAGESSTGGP
UniProt Q62151, residues 23-340: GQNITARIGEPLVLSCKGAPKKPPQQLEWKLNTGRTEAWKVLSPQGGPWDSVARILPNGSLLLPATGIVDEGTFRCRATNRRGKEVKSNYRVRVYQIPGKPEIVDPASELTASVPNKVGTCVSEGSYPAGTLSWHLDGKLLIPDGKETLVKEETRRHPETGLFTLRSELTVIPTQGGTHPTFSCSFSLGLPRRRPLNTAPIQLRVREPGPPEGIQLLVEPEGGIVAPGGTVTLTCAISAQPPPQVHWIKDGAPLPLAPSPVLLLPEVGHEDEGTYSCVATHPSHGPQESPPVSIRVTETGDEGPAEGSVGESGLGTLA

Columns and labels:
[1] = target: BacMam-expressed sRAGE (human) (UniProt Q15109); assay: antigen bound to antibody immobilized on CNBr-Sepharose (epitope excision)
[2] = target: recombinant husRAGE protein 293/6.1 sRAGE His 6 (1-331 sRAGE-HIS) (human) (UniProt Q15109); assay: dot blot, non-denatured protein on nitrocellulose, antibody 7.14 nM
[3] = target: mouse RAGE (Mu-RAGE) (mouse) (UniProt Q62151); assay: Biacore SPR (Table 7, column Mouse-RAGE)
[4] = target: recombinant husRAGE protein 293/6.1 sRAGE His 6 (1-331 sRAGE-HIS) (human) (UniProt Q15109); assay: HTRF competition: husRAGE-His pre-incubated with antibody; blocked ligand: biotinylated Aβ1-42 globulomer; anti-6His cryptate / streptavidin XL-665

B1: anti-human RAGE monoclonal antibody 7F9 (murine, hybridoma-derived) (antibody, V domains shown)
VH: EEKLEESGGGLVQLGGSMKISCVASGFTLSNYWMDWVRQSPEKGLEWIAEIRLKSNYYSTHYAESVKGRFSISRDDSKGSVSLQMDNLTAEDTGIYFCARNAYWYFDVWGTGTTVTVSS
VL: DIVMTQSHKFMSTSVGDRVSATCKASQDVGTSVAWYQQKLGQSPKLLIYWTSTRHTGVPDRFTGSGSGTDFTLTISNVQSEDLADYFCQQYNNYPLTFGDGTKLELKR
binding [1]: binds
binding [2]: binds
binding [3]: binds
binding [4]: binds

B2: anti-human RAGE monoclonal antibody 4E5 (murine, hybridoma-derived) (antibody, V domains shown)
VH: QVQLQQSGAELVRPGTSVKVSCKASGYAFNNYLIEWIKQRPGQGLEWIGVINPGSGGTNHNEKFKVKATLTADKSSSTAYIQLSSLTSDDSAVYFCARSAGTARARFAYWGQGTLVTVSA
VL: DIQMTQSPSSLSASLGERVSLTCRASQDIGSSLNWLQQEPDGTIKRLIYATSSLDSGVPKRFSGSRSGSDYSLTISSLESEDFVDYYCLQYASFPFTFGSGTKLEIKR
binding [1]: binds

B3: anti-human RAGE monoclonal antibody 11E6 (murine, hybridoma-derived) (antibody, V domains shown)
VH: QIQLVQSGPELKKPGETVKISCKASGYTFTNFGMNWVKQAPGKGLKWMGYINTNTGESIYSEEFKGRFAFSLETSASTAYLQINNLKNEDTATYFCARSRMVTAYGMDYWGQGTSVTVSS
VL: DIVMTQSQKFMSTSVGDRVSITCKASQNVGTAVAWYQQRPGQSPKLLIFSASNRYTGVPDRFTGSGSGTDFTLTLSNMQPEDLADYFCQQYSSYPLTFGVGTKLELKR
binding [3]: binds
